Record: PubChem BioAssay AID504774 (Drosophila RNAi Screening Center, 2011)
Aim: 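Knock-downs that shift viability of MMS-exposed cells relative to untreated ones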 (primary screen). Cells: Drosophila Kc167 cells. Reagent: long dsRNA against Drosophila genes, about 0.25 µg dsRNA per well. Duration: about 6 days: 3 days knock-down, then 3 days with or without MMS. Treatment: methyl methanesulphonate 0.004% (w/v) for 3 days after knock-down. Measured: 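Viability in wells given MMS, read as ATP luminescence, normalised by quantiles plate by plate and averaged across replicates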. Reading the numbers: mean viability with MMS and viability with MMS: higher = more surviving cells after MMS.
The screen tested about 23,000 reagents; this is an unselected part of those that have a named target and a result. 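Values are quantile-normalised luminescence on an arbitrary scale; higher means more cells surviving MMS.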 The numbers tell different reagents against one gene apart. Names joined by + are all predicted targets of the reagent.

| Target gene | reagent | mean viability with MMS | viability with MMS, replicate 1 | viability with MMS, replicate 2 |
| --- | --- | --- | --- | --- |
| CG42284 | 1 | 3.68e6 | 4.10e6 | 4.17e6 |
| CG42284 | 2 | 3.54e6 | 4.02e6 | 4.01e6 |
| cGlr1 | 1 | 3.51e6 | 4.06e6 | 3.89e6 |
| CG42580 | 1 | 3.51e6 | 3.97e6 | 4.01e6 |
| CG43066 | 1 | 3.43e6 | 3.86e6 | 3.84e6 |
| CG14118 | 1 | 3.55e6 | 4.08e6 | 3.96e6 |
| CG6654 | 1 | 3.50e6 | 3.93e6 | 3.98e6 |
| gammaTub37C | 1 | 3.62e6 | 4.07e6 | 4.18e6 |
| CR33294 | 1 | 3.56e6 | 4.07e6 | 3.98e6 |
| VhaAC39-1 | 1 | 3.49e6 | 3.85e6 | 4.08e6 |
| CG12641 (retired record) | 1 | 3.21e6 | 3.71e6 | 3.79e6 |
| CG12641 (retired record) | 2 | 3.56e6 | 3.99e6 | 4.12e6 |
| CG7024 | 1 | 3.60e6 | 4.16e6 | 4.01e6 |
| CG11790 | 1 | 3.42e6 | 3.79e6 | 3.96e6 |
| Cyp6t3 | 1 | 3.58e6 | 3.83e6 | 4.10e6 |
| twi | 1 | 3.20e6 | 3.63e6 | 3.51e6 |
| twi | 2 | 3.58e6 | 4.03e6 | 4.10e6 |
| CG40551 (retired record) | 1 | 3.67e6 | 4.08e6 | 4.17e6 |
| CG8661 | 1 | 3.29e6 | 3.75e6 | 3.59e6 |
| CG14420 | 1 | 3.46e6 | 3.92e6 | 3.93e6 |
| Hn | 1 | 3.60e6 | 4.06e6 | 4.11e6 |
| Or19b + Or19a | 1 | 3.59e6 | 4.04e6 | 4.06e6 |
| Fer2LCH | 1 | 3.91e6 | 4.63e6 | 4.36e6 |
| CG6484 | 1 | 3.60e6 | 4.08e6 | 4.10e6 |
| lili | 1 | 3.47e6 | 3.92e6 | 3.95e6 |
| CG12121 | 1 | 3.38e6 | 3.67e6 | 4.01e6 |
| Top3alpha | 1 | 3.54e6 | 4.05e6 | 3.97e6 |
| Nepl13 | 1 | 3.76e6 | 4.23e6 | 4.29e6 |
| glec | 1 | 3.52e6 | 3.99e6 | 3.99e6 |
| CG9164 | 1 | 3.35e6 | 3.77e6 | 3.90e6 |
| CG9164 | 2 | 3.57e6 | 3.90e6 | 3.83e6 |
| CG14151 | 1 | 3.87e6 | 4.82e6 | 3.85e6 |
| CG31798 | 1 | 3.56e6 | 4.01e6 | 4.05e6 |
| Arp2 | 1 | 3.51e6 | 4.04e6 | 3.92e6 |
| Sap47 | 1 | 3.39e6 | 3.79e6 | 3.89e6 |
| SiaT | 1 | 3.50e6 | 3.97e6 | 3.96e6 |
| CG8197 | 1 | 3.59e6 | 4.03e6 | 4.07e6 |
| CG7137 | 1 | 3.59e6 | 4.13e6 | 4.02e6 |
| CG6287 | 1 | 3.57e6 | 4.15e6 | 3.97e6 |
| CG18371 | 1 | 3.49e6 | 3.99e6 | 3.94e6 |
| Zip42C.2 | 1 | 3.45e6 | 4.01e6 | 3.79e6 |
| Or22b | 1 | 3.56e6 | 3.83e6 | 4.25e6 |
| CG9970 | 1 | 3.45e6 | 3.91e6 | 3.93e6 |
| pen-2 | 1 | 3.56e6 | 4.05e6 | 4.01e6 |
| fh | 1 | 3.43e6 | 3.92e6 | 3.87e6 |
| comm | 1 | 3.45e6 | 4.02e6 | 3.76e6 |
| Tailor | 1 | 3.49e6 | 4.02e6 | 3.93e6 |
| Hr96 | 1 | 3.53e6 | 3.95e6 | 4.07e6 |
| PIG-X | 1 | 3.72e6 | 4.25e6 | 4.05e6 |
| Hsc70-2 | 1 | 3.55e6 | 3.98e6 | 4.08e6 |
| Karybeta3 | 1 | 3.32e6 | 3.77e6 | 3.72e6 |
| JMJD4 | 1 | 3.49e6 | 3.82e6 | 4.09e6 |
| Pex13 | 1 | 3.57e6 | 4.08e6 | 4.03e6 |
| Vm26Aa | 1 | 3.60e6 | 4.08e6 | 4.06e6 |
| TrissinR | 1 | 3.60e6 | 4.06e6 | 4.07e6 |
| TrissinR | 2 | 3.63e6 | 4.10e6 | 4.10e6 |
| TrissinR | 3 | 3.51e6 | 3.87e6 | 4.08e6 |
| unc-13-4A | 1 | 3.79e6 | 4.20e6 | 4.36e6 |
| unc-13-4A | 2 | 3.64e6 | 4.02e6 | 4.26e6 |
| unc-13-4A | 3 | 2.83e6 | 3.45e6 | 3.47e6 |
| unc-13-4A | 4 | 3.72e6 | 4.21e6 | 4.21e6 |
| CG2336 | 1 | 3.59e6 | 4.08e6 | 4.06e6 |
| CG31468 | 1 | 3.53e6 | 4.04e6 | 3.96e6 |
| CG8736 | 1 | 3.61e6 | 4.02e6 | 4.12e6 |
| CG13280 | 1 | 3.64e6 | 4.11e6 | 4.11e6 |
| exu | 1 | 3.50e6 | 3.89e6 | 4.03e6 |
| Argk1 | 1 | 3.80e6 | 4.18e6 | 4.25e6 |
| Argk1 | 2 | 3.29e6 | 3.72e6 | 3.65e6 |
| Argk1 | 3 | 3.46e6 | 3.94e6 | 3.90e6 |
| Argk1 | 4 | 3.43e6 | 3.93e6 | 3.90e6 |
| Argk1 | 5 | 3.42e6 | 3.86e6 | 3.98e6 |
| CG31862 | 1 | 3.35e6 | 3.72e6 | 3.83e6 |
| CG13059 | 1 | 3.52e6 | 3.95e6 | 4.03e6 |
| CG32052 | 1 | 3.54e6 | 3.98e6 | 4.05e6 |
| CG5347 | 1 | 3.62e6 | 4.07e6 | 4.12e6 |
| Ppcs | 1 | 3.53e6 | 4.03e6 | 3.99e6 |
| CG3626 | 1 | 3.40e6 | 4.01e6 | 3.69e6 |
| CG13409 | 1 | 3.47e6 | 3.96e6 | 3.94e6 |
| hop | 1 | 3.48e6 | 3.95e6 | 3.94e6 |
| hop | 2 | 3.68e6 | 4.06e6 | 4.29e6 |
| Vps25 | 1 | 3.37e6 | 3.81e6 | 3.82e6 |
| CG5790 | 1 | 3.52e6 | 3.77e6 | 4.22e6 |
| Prp31 | 1 | 3.44e6 | 3.93e6 | 3.85e6 |
| Mes2 | 1 | 3.04e6 | 3.72e6 | 3.79e6 |
| Mes2 | 2 | 3.34e6 | 3.74e6 | 3.79e6 |
| Bap170 | 1 | 3.51e6 | 3.99e6 | 4.11e6 |
| Bap170 | 2 | 3.51e6 | 3.96e6 | 4.02e6 |
